From patent US20240390531A1 (IMAGINAB, published 2024) come the findings set out here.

For the test, the target named is cynomolgus-FAP (cynomolgus). Put plainly: ELISA, cross-reactivity (FIG. 92).

Results are given in words; binding and its absence hold for the method and conditions named. Binding calls can cover weak binding; strength is not graded here.

B1: IAB16M2-43 (other)
chain: QVQLQESGPGLVKPSETLSLTCTVSGFSLTNYDINWIRQPPGKGLEWIGLIWTGGGTNYNPSLKSRVTISKDTSKNQFSLKLSSVTAADTAVYYCVRGGPLVWYALDYWGQGTLVTVSSGSTSGGGSGGGSGGGGSSDIQMTQSPSSLSASVGDRVTITCKASQDVSTAVAWYQQKPGKAPKLLIYSASYRYTGVPSRFSGSGSGTDFTFTISSLQPEDIATYYCQQHYSNPRTFGGGTKVEIKEPKSSDKTHTCPPCPPCGGGSSGGGSGGQPREPQVYTLPPSREEMTKNQVSLTCLVKGFYPSDIAVEWESNGQPENNYKTTPPVLDSDGSFFLYSKLTVDKSRWQQGNVFSCSVMHEALHNHYTQKSLSLSPG
B1: the binding entry is “binds”.
